Results: publication PMC9334269
These are yes or no findings as the source states them, for the method shown. In cells and extracts the contact can be indirect. Some results given as binding are weak or reduced against the parent protein; the word gives no strength. Values belong to the substance of their own block, whether it stands above or below them.

The chains behind the UniProt entries cited, without tags or fusion partners. Where a name states a change or a piece, a line headed by the entry shows the natural chain unless it says otherwise. Residues count along the entry.
UniProt Q86WV6: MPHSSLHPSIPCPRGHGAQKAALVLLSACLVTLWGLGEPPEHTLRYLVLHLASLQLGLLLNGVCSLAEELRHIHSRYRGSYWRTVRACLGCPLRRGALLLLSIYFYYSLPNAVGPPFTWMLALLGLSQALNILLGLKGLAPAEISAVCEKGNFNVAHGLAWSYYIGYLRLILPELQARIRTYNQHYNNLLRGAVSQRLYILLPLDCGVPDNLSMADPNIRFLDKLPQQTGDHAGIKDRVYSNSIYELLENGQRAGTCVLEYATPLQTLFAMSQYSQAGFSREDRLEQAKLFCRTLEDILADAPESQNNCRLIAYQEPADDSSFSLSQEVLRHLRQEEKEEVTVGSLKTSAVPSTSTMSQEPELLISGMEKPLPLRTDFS
STING1 CBD-Flag (amino acids 180-340): residues 180-340 of Q86WV6
UniProt Q13772: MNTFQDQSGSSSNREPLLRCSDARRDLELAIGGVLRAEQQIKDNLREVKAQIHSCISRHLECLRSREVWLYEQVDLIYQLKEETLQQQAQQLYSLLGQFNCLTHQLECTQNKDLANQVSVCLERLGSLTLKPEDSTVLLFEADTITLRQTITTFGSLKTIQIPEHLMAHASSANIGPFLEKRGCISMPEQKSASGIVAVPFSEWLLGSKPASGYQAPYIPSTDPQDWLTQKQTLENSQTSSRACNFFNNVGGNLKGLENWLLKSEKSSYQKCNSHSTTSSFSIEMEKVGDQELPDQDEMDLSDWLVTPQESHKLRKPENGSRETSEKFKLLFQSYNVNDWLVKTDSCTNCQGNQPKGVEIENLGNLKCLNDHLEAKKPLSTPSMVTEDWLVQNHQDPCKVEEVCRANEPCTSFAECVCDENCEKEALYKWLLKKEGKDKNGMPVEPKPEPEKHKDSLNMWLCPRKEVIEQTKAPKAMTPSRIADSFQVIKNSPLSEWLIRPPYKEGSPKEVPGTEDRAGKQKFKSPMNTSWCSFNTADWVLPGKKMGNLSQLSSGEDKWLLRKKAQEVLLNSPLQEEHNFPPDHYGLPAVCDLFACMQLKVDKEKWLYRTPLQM
NCOA4 1-245-Myc (CC fragment of NCOA4): residues 1-245 of Q13772

What was measured:
[1] = biological target: STING1-Flag (Flag-tagged full-length STING) (UniProt Q86WV6); assay: co-IP; HEK293T cells with Flag-tagged full-length or truncated STING and FL NCOA4-Myc (Supplementary Fig. S5E); antibody used for the IP not told
[2] = biological target: STING1 CBD-Flag (amino acids 180-340) (UniProt Q86WV6); assay: co-IP; HEK293T cells co-transfected; cleared lysate, IP with anti-Flag (STING as bait) overnight at 4 °C, protein A/G agarose, three washes with lysis buffer, immunoblot
[3] = biological target: STING1-Flag (Flag-tagged full-length STING) (UniProt Q86WV6); assay: as above
[4] = biological target: NCOA4 1-245-Myc (CC fragment of NCOA4) (human) (UniProt Q13772); assay: co-IP; HEK293T cells overexpressing Myc-tagged NCOA4 fragments and Flag-tagged STING1; Myc IP from lysates, immunoblot
HA-tagged NCOA4 (human) = HA-tagged NCOA4 (human) (UniProt Q13772); assay: co-IP; HEK293T cells co-transfected with Flag-STING and HA-NCOA4; IP with anti-HA (NCOA4 as bait), protein A/G agarose, immunoblot

- binding [1]: binds
Substance: FL NCOA4-Myc (full-length human NCOA4, Myc-tagged) (from UniProt Q13772-1 1-614)

- binding [2]: binds
- binding [3]: binds
Substance: HA-tagged NCOA4 (from UniProt Q13772-1 1-614)

- binding [4]: binds
- binding (HA-tagged NCOA4 (human)): binds
Substance: STING1-Flag (Flag-tagged full-length STING) (from UniProt Q86WV6 1-379)
